Data on 6 sequences can be found in publication PMC9646512.

For part of these data: A negative result means that nothing was seen under these conditions. For part of these data: Construct, isoform or probe ends are uncertain for at least one entry. For part of these data: At least one verdict was read from the data and is not stated in words by the source.

The subject of data set [1] is streptavidin. In words: ITC. Particulars: all L-DNA (mirror image); ITC: 20 mM HEPES-NaOH, 150 mM NaCl, 5 mM KCl, 2 mM MgCl2, 1 mM CaCl2, pH 7.4, 25 C; commercial protein; synthetic backbone.
Data set [2] has as its system native bovine alpha-thrombin (Bos taurus (bovine)). Briefly: structure-switching fluorescence. Particulars: 1 uM protein; all L-DNA (mirror image); ITC: 20 mM HEPES-NaOH, 150 mM NaCl, 5 mM KCl, 2 mM MgCl2, 1 mM CaCl2, pH 7.4, 25 C; commercial protein; synthetic backbone.
Data set [3] concerns native human alpha-thrombin (Homo sapiens). In words: structure-switching fluorescence. Particulars: 37 C, ITC: 20 mM HEPES-NaOH, 150 mM NaCl, 5 mM KCl, 2 mM MgCl2, 1 mM CaCl2, pH 7.4, 25 C, commercial protein.
For data set [4], the system named is streptavidin. In words: structure-switching fluorescence. Conditions: 1 uM protein; all L-DNA (mirror image); ITC: 20 mM HEPES-NaOH, 150 mM NaCl, 5 mM KCl, 2 mM MgCl2, 1 mM CaCl2, pH 7.4, 25 C; commercial protein; synthetic backbone.
The subject of data set [5] is native human alpha-thrombin (Homo sapiens). Briefly: aptamer western blot. Particulars: SDS-PAGE, nitrocellulose, 500 nM aptamer; all L-DNA (mirror image); commercial protein; label: 5'-Cy5; synthetic backbone. (In general: A western blot detects proteins with antibodies after separation by electrophoresis.)
The test system of data set [6] is streptavidin. Briefly: aptamer western blot. Particulars: SDS-PAGE, nitrocellulose, 500 nM aptamer; all L-DNA (mirror image); commercial protein; label: 5'-Cy5; synthetic backbone.
Data set [7] deals with native human alpha-thrombin (Homo sapiens). In words: thrombin activity inhibition. Particulars: no inhibition, direct binding not tested; natural D-DNA; commercial protein; folded or branched DNA.

Regarding “ACGGAACGCGTTTCAAGACTACCGTGTTTGTTCCGT [L-9-1t aptamer]”, the binding result in the data set with streptavidin [1] was “no binding”.

With “CAGCTCGGATCCAGTTACGGAACGCGTTTCAAGACTACCGTGTTTGTTCCGT / ACTGGATCCGAGCTG / ACGCGTTCCGT [L-DNA aptamer sensor]”, the binding result in data set [2] is “no binding”; in data set [3] (all L-DNA (mirror image), synthetic backbone), “binds”; in the data set on streptavidin [4], “no binding”.

On to “CGGATCCAGTTACGGACTGAACAGAAGGGTGGTGTGGTTGGACTGTTCA / TCCGTAACTGGATCCG / ACCCTTCTGTTCA [D-DNA aptamer sensor]”, for which the binding result in data set [3] is “binds”.

Consider “GATGAACTTGTTGAAACCCAACGGGAGAATCGTTCATT [L-9-2t aptamer]”, for which, in the data set on streptavidin [1], the binding result is recorded as “no binding”.

For “GATGAACTTGTTGAAACCCAACGGGAGCCTCGTTCATT [Cy5-L-13t aptamer]”, the figures for the binding result (in data set [5]; in the data set on streptavidin [6]) were “binds” and “no binding”, respectively.

Turning to “GATGAACTTGTTGAAACCCAACGGGAGCCTCGTTCATT [D-L-13t]”, the IC50 in data set [7] was greater than 8 µM.

By IC50 is commonly meant the midpoint of a concentration-inhibition curve.
